# Test results from patent publication US11638428B2, “Nematocidal heterocyclic amides” (CORTEVA AGRISCIENCE LLC, priority 2015, dated 2023).
# Some entries share one result that the patent states for a list of compounds.
# Test system: southern root-knot nematode (Meloidogyne incognita)
# Experiment: Test A: control of southern root-knot nematode in sandy soil with cucumber seedlings (root gall formation)
# Type: in vivo
# Conditions: 500 ppm active ingredient applied to soil, J2 larvae and eggs, 7 days at 27° C.
row,Compound,"reduction in root galling, compared to solvent-treated controls (good levels of plant protection)"
1,Cc1occc1C(=O)NC(C)C(C)C (centres unmarked) [Compound 4],≥ 50%
2,Cc1occc1C(=O)N(C)C(C)C1CC1 (centres unmarked) [Compound 2],≥ 50%
3,CCCC(C)NC(=O)c1ccoc1Br (centres unmarked) [Compound 34],≥ 50%
4,Cc1occc1C(=O)N[C@H](C)C1CC1 [Compound 36],≥ 50%
5,CSCC(C)(C)NC(=O)c1ccoc1Cl [Compound 14],≥ 50%
6,CC(NC(=O)c1ccoc1Cl)C1(C)CC1 (centres unmarked) [Compound 22],≥ 50%
7,"CC(NC(=O)c1ccoc1Cl)C(C)(C)C (centres unmarked) [Compound 27, 2-chloro-N-(1,2,2-trimethylpropyl)-3-furancarboxamide]",≥ 50%
8,CC(C)[C@H](C)NC(=O)c1ccoc1Cl [Compound 43],≥ 50%
9,CCCCCC(C)NC(=O)c1ccoc1Cl (centres unmarked) [Compound 29],≥ 50%
10,CCCC(C)NC(=O)c1ccoc1Cl (centres unmarked) [Compound 17],≥ 50%
11,COCC(C)(C)NC(=O)c1ccoc1Cl [Compound 12],≥ 50%
12,CC(NC(=O)c1ccoc1Cl)C1CCCCC1 (centres unmarked) [Compound 21],≥ 50%
13,CC(C)C(C)NC(=O)c1ccoc1Br (centres unmarked) [Compound 33],≥ 50%
14,Cc1occc1C(=O)N[C@H](C)C(C)C [Compound 96],≥ 50%
15,Cc1occc1C(=O)N[C@@H](C)C(C)C [Compound 101],≥ 50%
16,Cc1occc1C(=O)N[C@@H](C)C1CC1 [Compound 37],≥ 50%
17,CC(C)CCCC(C)NC(=O)c1ccoc1Cl (centres unmarked) [Compound 30],≥ 50%
18,Cc1occc1C(=O)NC(C)CC(C)(C)C (centres unmarked) [Compound 80],≥ 50%
19,Cc1occc1C(=O)NC(C)(C)C1CC1 [Compound 7],≥ 50%
20,C[C@H](NC(=O)c1ccoc1Br)C(C)(C)C [Compound 42],≥ 50%
21,CC(NC(=O)c1ccoc1Cl)C1CCC1 (centres unmarked) [Compound 23],≥ 50%

row,Compound,"reduction in root galling, compared to solvent-treated controls (good levels of plant protection)"
1,CC(NC(=O)c1ccoc1Br)C1CC1 (centres unmarked) [Compound 32],≥ 50%
2,Cc1occc1C(=O)NC(C)C1CC1 (centres unmarked) [Compound 6],≥ 50%
3,CC(NC(=O)c1ccoc1Cl)C(F)(F)F (centres unmarked) [Compound 24],≥ 50%
4,Cc1occc1C(=O)NC(C)C [Compound 3],≥ 50%
5,CCC(C)NC(=O)c1ccoc1Cl (centres unmarked) [Compound 16],≥ 50%
6,CC(C)[C@@H](C)NC(=O)c1ccoc1Cl [Compound 75],≥ 50%
7,CC(NC(=O)c1ccoc1Br)C(C)(C)C (centres unmarked) [Compound 35],≥ 50%
8,CC(NC(=O)c1ccoc1Cl)C1CC1 (racemic) [Compound 11],≥ 50%
9,CCC(C)C(C)NC(=O)c1ccoc1C (centres unmarked) [Compound 1],≥ 50%
10,CC(C)C(C)NC(=O)c1ccoc1Cl (centres unmarked) [Compound 26],≥ 50%
11,C[C@@H](NC(=O)c1ccoc1Br)C1CC1 [Compound 74],≥ 50%
12,"C[C@H](NC(=O)c1ccoc1Cl)C(C)(C)C [Compound 40, 2-chloro-N-[(1S)-1,2,2-trimethylpropyl]-3-furancarboxamide]",≥ 50%
13,CC(C)C(C)(C)NC(=O)c1ccoc1Cl [Compound 10],≥ 50%
14,CC(C)(NC(=O)c1ccoc1Cl)C1CC1 [Compound 8],≥ 50%
15,Cc1occc1C(=O)N[C@H](C)C(C)(C)C [Compound 39],≥ 50%
16,CC[C@H](C)NC(=O)c1ccoc1Cl [Compound 77],≥ 50%
17,CC(C)CC(C)NC(=O)c1ccoc1Cl (centres unmarked) [Compound 19],≥ 50%
18,CC(C)(C)CC(C)(C)NC(=O)c1ccoc1Cl [Compound 18],≥ 50%
19,CCCC(C)NC(=O)c1ccoc1C (centres unmarked) [Compound 5],≥ 50%
20,"C[C@@H](NC(=O)c1ccoc1Cl)C1CC1 [Compound 45, 2-chloro-N-[(1R)-1-cyclopropylethyl]-3-furancarboxamide]",≥ 50%
